The text below walks through data of paper PMC8668916.

Amino acid sequences for entries named in this document (tags omitted).
UniProt O94759: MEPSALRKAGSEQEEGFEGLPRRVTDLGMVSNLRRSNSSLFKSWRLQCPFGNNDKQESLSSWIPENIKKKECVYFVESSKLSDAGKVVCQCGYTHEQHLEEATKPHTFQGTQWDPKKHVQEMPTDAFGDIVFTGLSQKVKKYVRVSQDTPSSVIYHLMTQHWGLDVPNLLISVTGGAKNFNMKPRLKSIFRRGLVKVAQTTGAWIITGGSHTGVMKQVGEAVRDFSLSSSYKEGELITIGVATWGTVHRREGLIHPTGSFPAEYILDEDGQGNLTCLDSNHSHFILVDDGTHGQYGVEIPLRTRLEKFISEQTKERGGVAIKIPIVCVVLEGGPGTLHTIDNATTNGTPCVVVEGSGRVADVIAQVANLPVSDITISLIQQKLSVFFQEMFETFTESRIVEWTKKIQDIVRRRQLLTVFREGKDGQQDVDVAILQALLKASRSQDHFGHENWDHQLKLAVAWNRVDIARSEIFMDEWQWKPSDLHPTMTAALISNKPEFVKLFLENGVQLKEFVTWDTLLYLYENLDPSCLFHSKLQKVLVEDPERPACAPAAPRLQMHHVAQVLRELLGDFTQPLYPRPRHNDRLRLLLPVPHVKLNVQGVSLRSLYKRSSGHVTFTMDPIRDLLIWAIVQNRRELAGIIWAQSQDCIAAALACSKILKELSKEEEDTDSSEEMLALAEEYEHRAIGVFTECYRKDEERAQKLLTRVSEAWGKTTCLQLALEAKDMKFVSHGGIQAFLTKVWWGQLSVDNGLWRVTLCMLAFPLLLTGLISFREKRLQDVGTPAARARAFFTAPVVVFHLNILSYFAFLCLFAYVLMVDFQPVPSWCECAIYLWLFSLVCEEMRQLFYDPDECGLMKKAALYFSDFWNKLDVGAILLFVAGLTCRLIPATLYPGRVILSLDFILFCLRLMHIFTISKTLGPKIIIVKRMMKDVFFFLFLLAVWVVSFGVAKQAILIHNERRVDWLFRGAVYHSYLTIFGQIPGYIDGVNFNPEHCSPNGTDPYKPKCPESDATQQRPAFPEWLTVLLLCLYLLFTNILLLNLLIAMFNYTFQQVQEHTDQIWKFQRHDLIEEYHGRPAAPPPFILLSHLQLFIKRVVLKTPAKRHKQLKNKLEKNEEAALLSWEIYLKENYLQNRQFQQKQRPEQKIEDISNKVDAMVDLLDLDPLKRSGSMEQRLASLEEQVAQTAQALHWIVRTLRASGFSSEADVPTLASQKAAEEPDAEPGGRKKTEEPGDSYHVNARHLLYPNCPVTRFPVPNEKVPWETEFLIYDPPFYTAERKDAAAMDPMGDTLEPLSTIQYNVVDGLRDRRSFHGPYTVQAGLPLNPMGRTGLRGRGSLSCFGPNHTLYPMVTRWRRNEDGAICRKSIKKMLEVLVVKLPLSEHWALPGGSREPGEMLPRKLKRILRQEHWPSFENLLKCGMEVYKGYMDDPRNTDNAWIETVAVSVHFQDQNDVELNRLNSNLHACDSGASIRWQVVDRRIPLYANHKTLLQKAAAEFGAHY
UniProt P19474: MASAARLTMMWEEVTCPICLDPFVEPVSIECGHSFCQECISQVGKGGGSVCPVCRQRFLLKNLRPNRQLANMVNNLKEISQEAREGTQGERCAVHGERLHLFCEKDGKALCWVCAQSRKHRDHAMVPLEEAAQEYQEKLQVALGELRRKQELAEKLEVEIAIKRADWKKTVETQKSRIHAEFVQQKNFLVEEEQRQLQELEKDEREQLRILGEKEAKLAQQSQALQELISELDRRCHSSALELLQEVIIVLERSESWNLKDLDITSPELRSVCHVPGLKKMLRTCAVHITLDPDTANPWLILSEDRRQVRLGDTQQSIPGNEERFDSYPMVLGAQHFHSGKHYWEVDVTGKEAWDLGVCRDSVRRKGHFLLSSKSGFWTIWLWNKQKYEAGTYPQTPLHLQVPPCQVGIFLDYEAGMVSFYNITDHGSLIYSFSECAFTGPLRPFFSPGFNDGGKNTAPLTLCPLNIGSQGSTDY

No constants are given. Whether binding was seen depends on the method and setting. In cells and extracts the contact can be indirect. A yes stands for co-enrichment or nearness to the bait. Other partners may have been found.

This experiment deals with TRPM2 (Transient receptor potential cation channel subfamily M member 2) (human (endogenous in THP-1)) (UniProt O94759). The experiment can be described thus: affinity purification with mass spectrometry; pull-down of TRPM2 from shNC and shAS (lncTRPM2-AS-silenced) THP-1 cells; TRPM2-interacting proteins identified by mass spectrometry.

As for “E3 ubiquitin ligase TRIM21 (from UniProt P19474 1-475) (enzyme)”, the binding entry is reported as “binds”.
